Measurements as given in patent US20060135483A1, “Oxygen/nitrogen heterocycle inhibitors of tyrosine phosphatases” (priority 2004, published 2006).

Sequences of proteins named here, by UniProt entry; tags and fusion partners are left off. Residues count along the entry.
UniProt P18031, 1-321 limits assumed: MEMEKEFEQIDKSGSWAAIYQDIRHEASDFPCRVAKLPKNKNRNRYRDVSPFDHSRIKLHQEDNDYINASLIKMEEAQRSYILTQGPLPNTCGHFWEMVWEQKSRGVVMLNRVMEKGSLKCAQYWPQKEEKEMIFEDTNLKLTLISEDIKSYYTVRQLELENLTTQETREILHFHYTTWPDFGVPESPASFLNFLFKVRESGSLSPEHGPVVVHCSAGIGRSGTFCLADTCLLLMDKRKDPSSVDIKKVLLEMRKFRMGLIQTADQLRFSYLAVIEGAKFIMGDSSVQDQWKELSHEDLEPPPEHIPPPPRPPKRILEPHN

Molecular target: PTP-1B (Homo sapiens, UniProt P18031)
Test: pNPP assay for tyrosine phosphatase inhibitory activity
Conditions: Table 2; pNPP substrate 10 mM, 30° C., 10 minutes, absorbance at 405 nm
Procedure: The compounds provided herein are evaluated for biological activity as inhibitors of PTP-1B using, for example, a pNPP assay. Such an assay can be used to screen compounds for tyrosine phosphatase inhibitory activity as shown in Example 39.
A 5× stock of pNPP (p-nitrophenol phosphate) substrate is prepared as 50 mM pNPP in assay buffer. […]
The compound to be tested is prepared as 1:16.7 and 1:50 dilutions from stock in a total volume of 1 00:M DMSO to give final concentrations of 626 and 200:M. The reaction mixtures are prepared in a 96-well microtiter plate (on ice) as 55:L assay buffer, 5:L of the diluted compound (to a final concentration of 31.3 and 10:M), 20:L of the pNPP substrate solution (to a final concentration of 10 mM) and 20:L PTPase in assay buffer. […] The reaction is then terminated by adding 1 OO:L of 2M K2CO3 per well, and the absorbance is measured at 405 nm by conventional means.
Unless otherwise indicated, this assay was used to determine activity for the selected compounds whose activity is recorded in Table 1 and Table 2.

Structure (SMILES): NC(=O)CSc1ccc(-c2cnc(N(Cc3ccc(C(F)(F)P(=O)(O)O)c(Br)c3)c3ccccc3)o2)cc1
- IC50: < 100 nM

Structures were worked out from names or drawings and are uncertain.
